# Measured values from publication PMC6423055, “Cathelicidins PMAP-36, LL-37 and CATH-2 are similar peptides with different modes of action” (Scientific Reports, 2019).
# Positions of bridges follow the written chain, without caps; N, C: chain ends. Chains are numbered I, II in the order given. No end group written: not given here.
# Assay: Isothermal titration calorimetry, peptide binding to LPS
# Design: species or system Escherichia coli
# Conditions: ITC, 37 °C, two independent models, N = 2 averaged
# Procedure: Isothermal titration calorimetry (ITC) was performed with the Low Volume NanoITC (TA Instruments-Waters LLC, New Castle, DE, USA) to determine interaction between LPS and the different peptides. 100 μM UltraPure LPS E. coli O111:B4 was diluted in MilliQ, after which 4x dilution in dPBS (Gibco) was made. Peptides were diluted to 800 μM in MilliQ, followed by 4-fold dilution in dPBS. The chamber was filled with 164 μl LPS, the peptide was titrated into the chamber with 1.96 μl every 300 seconds. Experiments were performed at 37 °C and analyzed using the Nano Analyze software (TA instruments-Waters LLC). All experiments were performed 2 times and corrected for buffer in buffer titration, after which the both experiments were averaged. Two independent models were used, except for LL-37 with one independent model fit, to determine the peptide-LPS interaction.
Substance,First binding event n (number of peptide molecules binding to one LPS molecule),First binding event ΔH (enthalpy changes) [kcal/mol],First binding event −TΔS (entropy changes) [J/mol·K],Second binding event n (number of peptide molecules binding to one LPS molecule),Second binding event ΔH (enthalpy changes) [kcal/mol],Second binding event −TΔS (entropy changes) [J/mol·K]
"Ac-GRFRRLRKKTRKRLKKIGKVLKWIPPIVGSIPLGS [mP1, monomeric analog of PMAP-36, Cys35 replaced by serine, last amino acid deleted]",0.509,-6.467,−10.03,1.650,6.647,−62.42
I: Ac-KIGKVLKWIPPIVGSIPLGCG / II: Ac-KIGKVLKWIPPIVGSIPLGCG (disulfide I:20-II:20) [Peptide P16],1.069,-16.14,34.17,1.979,14.91,−94.4
"Ac-RKKTRKRLKKIGKVLKWIPPIVGSIPLGS [mP7, monomeric analog of P7]",0.392,-6.269,−13.09,1.499,6.542,−66.12
"Ac-KIGKVLKWIPPIVGSIPLGS [mP16, monomeric analog of P16]",0.371,-21.77,57.13,0.751,23.89,−130.80
"Ac-KRLKKIGKVLKWIPPIVGSIPLGS [mP12, monomeric analog of P12]",0.347,-23.901,66.66,1.214,20.21,−116.50
I: Ac-RKKTRKRLKKIGKVLKWIPPIVGSIPLGCG / II: Ac-RKKTRKRLKKIGKVLKWIPPIVGSIPLGCG (disulfide I:29-II:29) [Peptide P7],0.305,-23.35,68.53,2.168,8.439,−69.72
"Ac-KRLKKIGKVLKWIPPIVGSIPLGCG (disulfide (positions not given here)) [Peptide P12, PMAP-36 analog with N-terminal truncation of 11 amino acids]",0.300,-9.226,3.95,2.763,7.823,−65.81
I: Ac-GRFRRLRKKTRKRLKKIGKVLKWIPPIVGSIPLGCG / II: Ac-GRFRRLRKKTRKRLKKIGKVLKWIPPIVGSIPLGCG (disulfide I:35-II:35) [PMAP-36],0.337,-23.901,70.36,2.706,4.173,−55.23

# Same assay, conditions: ITC, recalculated from monomer basis to dimer
row,Substance,LPS molecules bound by one dimer molecule
1,I: Ac-GRFRRLRKKTRKRLKKIGKVLKWIPPIVGSIPLGCG / II: Ac-GRFRRLRKKTRKRLKKIGKVLKWIPPIVGSIPLGCG (disulfide I:35-II:35) [PMAP-36],1.35
